# Measurements taken from the supplement of paper PMC10077471.
# Over roughly 1,900 compounds, “excess over highest single agent (ExcessHSA) synergy score, 6x6 matrix” has its median near -83; the lowest 2% begin near -370. The list shows a part of the results.
# System: NCI-H446
# Test: excess over highest single agent (ExcessHSA) synergy score, 6x6 matrix; higher = less synergy (more negative = stronger synergy)
# Settings: 72 h; CellTiter-Glo viability
row,SMILES,excess over highest single agent
1,C[C@H](NC(=O)[C@@H](O)c1cc(F)cc(F)c1)C(=O)N[C@@H]1C(=O)N(C)c2ccccc2-c2ccccc21 + Cc1sc2c(c1C)C(c1ccc(Cl)cc1)=N[C@@H](CC(=O)OC(C)(C)C)c1nnc(C)n1-2 [NCGC00250412-19],-3.99
2,CCS(=O)(=O)Nc1ccc2[nH]c(O)c(C(=Nc3ccc(CN4CCCCC4)cc3)c3ccccc3)c2c1 + Cc1sc2c(c1C)C(c1ccc(Cl)cc1)=N[C@@H](CC(=O)OC(C)(C)C)c1nnc(C)n1-2 [NCGC00250412-19],-393
3,N=C1N[C@H]2[C@H](CS[C@H]2CCCCC(=O)O)N1 + Cc1sc2c(c1C)C(c1ccc(Cl)cc1)=N[C@@H](CC(=O)OC(C)(C)C)c1nnc(C)n1-2 [NCGC00250412-19],-1.1
4,CCC(=O)O[C@H]1CC[C@H]2[C@@H]3CCC4=CC(=O)CC[C@]4(C)[C@H]3CC[C@]12C + Cc1sc2c(c1C)C(c1ccc(Cl)cc1)=N[C@@H](CC(=O)OC(C)(C)C)c1nnc(C)n1-2 [NCGC00250412-19],-35.9
5,N#Cc1c(C2CCNCC2)cc(-c2c(O)cccc2OCC2CC2)nc1N + Cc1sc2c(c1C)C(c1ccc(Cl)cc1)=N[C@@H](CC(=O)OC(C)(C)C)c1nnc(C)n1-2 [NCGC00250412-19],31
6,O=c1cc(-c2ccc(O)c(O)c2)oc2cc(O)cc(O)c12 + Cc1sc2c(c1C)C(c1ccc(Cl)cc1)=N[C@@H](CC(=O)OC(C)(C)C)c1nnc(C)n1-2 [NCGC00250412-19],-158
7,O=C(Cc1ccc(-c2ccc(OCCN3CCOCC3)cc2)cn1)NCc1ccccc1 + Cc1sc2c(c1C)C(c1ccc(Cl)cc1)=N[C@@H](CC(=O)OC(C)(C)C)c1nnc(C)n1-2 [NCGC00250412-19],-148
8,NCCCCNCCCN + Cc1sc2c(c1C)C(c1ccc(Cl)cc1)=N[C@@H](CC(=O)OC(C)(C)C)c1nnc(C)n1-2 [NCGC00250412-19],60
9,Nc1ncn([C@H]2C[C@H](O)[C@@H](CO)O2)c(=O)n1 + Cc1sc2c(c1C)C(c1ccc(Cl)cc1)=N[C@@H](CC(=O)OC(C)(C)C)c1nnc(C)n1-2 [NCGC00250412-19],-256
10,COC(=O)Nc1ccc(-c2nc(N3CCOCC3)c3cnn(C4CCN(Cc5cccnc5)CC4)c3n2)cc1 + Cc1sc2c(c1C)C(c1ccc(Cl)cc1)=N[C@@H](CC(=O)OC(C)(C)C)c1nnc(C)n1-2 [NCGC00250412-19],-214
11,CCn1c(-c2nonc2N)nc2cncc(CNC3CCNCC3)c21 + Cc1sc2c(c1C)C(c1ccc(Cl)cc1)=N[C@@H](CC(=O)OC(C)(C)C)c1nnc(C)n1-2 [NCGC00250412-19],51.1
12,CCN[C@H]1C[C@H](C)S(=O)(=O)c2sc(S(N)(=O)=O)cc21 + Cc1sc2c(c1C)C(c1ccc(Cl)cc1)=N[C@@H](CC(=O)OC(C)(C)C)c1nnc(C)n1-2 [NCGC00250412-19],-134
13,O=C1Cc2cc(CCN3CCN(c4nsc5ccccc45)CC3)c(Cl)cc2N1 + Cc1sc2c(c1C)C(c1ccc(Cl)cc1)=N[C@@H](CC(=O)OC(C)(C)C)c1nnc(C)n1-2 [NCGC00250412-19],-87.1
14,Clc1ccc(COC(Cn2ccnc2)c2ccc(Cl)cc2Cl)c(Cl)c1 (configuration not stated) + Cc1sc2c(c1C)C(c1ccc(Cl)cc1)=N[C@@H](CC(=O)OC(C)(C)C)c1nnc(C)n1-2 [NCGC00250412-19],-184
15,CO[C@H]1O[C@@H]2O[C@@]3(C)CC[C@H]4[C@H](C)CC[C@@H]([C@H]1C)[C@@]24OO3 + Cc1sc2c(c1C)C(c1ccc(Cl)cc1)=N[C@@H](CC(=O)OC(C)(C)C)c1nnc(C)n1-2 [NCGC00250412-19],-261
16,NC12CC3CC(CC(C3)C1)C2 + Cc1sc2c(c1C)C(c1ccc(Cl)cc1)=N[C@@H](CC(=O)OC(C)(C)C)c1nnc(C)n1-2 [NCGC00250412-19],-91.8
17,CO[C@@H](C(=O)N1Cc2[nH]nc(NC(=O)c3ccc(N4CCN(C)CC4)cc3)c2C1)c1ccccc1 + Cc1sc2c(c1C)C(c1ccc(Cl)cc1)=N[C@@H](CC(=O)OC(C)(C)C)c1nnc(C)n1-2 [NCGC00250412-19],-288
18,CN1CCN(C2=Nc3cc(Cl)ccc3Nc3ccccc32)CC1 + Cc1sc2c(c1C)C(c1ccc(Cl)cc1)=N[C@@H](CC(=O)OC(C)(C)C)c1nnc(C)n1-2 [NCGC00250412-19],-31.6
19,Cc1sc2c(c1C)C(c1ccc(Cl)cc1)=N[C@@H](CC(=O)OC(C)(C)C)c1nnc(C)n1-2 + Cc1sc2c(c1C)C(c1ccc(Cl)cc1)=N[C@@H](CC(=O)OC(C)(C)C)c1nnc(C)n1-2 [NCGC00250412-19],-86.2

# Taken from the results shown (2 entries):
row,SMILES,excess over highest single agent
3,N=C1N[C@H]2[C@H](CS[C@H]2CCCCC(=O)O)N1 + Cc1sc2c(c1C)C(c1ccc(Cl)cc1)=N[C@@H](CC(=O)OC(C)(C)C)c1nnc(C)n1-2 [NCGC00250412-19],-1.1
4,CCC(=O)O[C@H]1CC[C@H]2[C@@H]3CCC4=CC(=O)CC[C@]4(C)[C@H]3CC[C@]12C + Cc1sc2c(c1C)C(c1ccc(Cl)cc1)=N[C@@H](CC(=O)OC(C)(C)C)c1nnc(C)n1-2 [NCGC00250412-19],-35.9

# Remaining list, next part.

row,SMILES,excess over highest single agent
1,CCn1nnc2c(N3CCOCC3)nc(-c3ccc(NC(=O)Nc4ccc(C(=O)N5CCN(C)CC5)cc4)cc3)nc21 + Cc1sc2c(c1C)C(c1ccc(Cl)cc1)=N[C@@H](CC(=O)OC(C)(C)C)c1nnc(C)n1-2 [NCGC00250412-19],-198
2,NS(=O)(=O)c1cc(C(=O)O)c(NCc2ccco2)cc1Cl + Cc1sc2c(c1C)C(c1ccc(Cl)cc1)=N[C@@H](CC(=O)OC(C)(C)C)c1nnc(C)n1-2 [NCGC00250412-19],-28.8
3,CCCn1c(=O)c2[nH]c(-c3cnn(Cc4cccc(C(F)(F)F)c4)c3)nc2n(CC)c1=O + Cc1sc2c(c1C)C(c1ccc(Cl)cc1)=N[C@@H](CC(=O)OC(C)(C)C)c1nnc(C)n1-2 [NCGC00250412-19],-49.1
4,CC(=O)N1CCN(c2ccc(OCc3nn(C)c(C)c3-c3cccc4c(CCCOc5cc(C)c(Cl)c(C)c5)c(C(=O)O)n(Cc5cccnc5)c34)cc2)CC1 + Cc1sc2c(c1C)C(c1ccc(Cl)cc1)=N[C@@H](CC(=O)OC(C)(C)C)c1nnc(C)n1-2 [NCGC00250412-19],158
5,CN[C@H]1CN(c2ccc3c(=O)c(C(=O)O)cn(-c4nccs4)c3n2)C[C@@H]1OC + Cc1sc2c(c1C)C(c1ccc(Cl)cc1)=N[C@@H](CC(=O)OC(C)(C)C)c1nnc(C)n1-2 [NCGC00250412-19],-272
6,COc1cc(C(=O)NS(=O)(=O)c2ccccc2C)ccc1Cc1cn(C)c2ccc(NC(=O)OC3CCCC3)cc12 + Cc1sc2c(c1C)C(c1ccc(Cl)cc1)=N[C@@H](CC(=O)OC(C)(C)C)c1nnc(C)n1-2 [NCGC00250412-19],-179
7,Cc1cc(C2CCCCC2)n(O)c(=O)c1 + Cc1sc2c(c1C)C(c1ccc(Cl)cc1)=N[C@@H](CC(=O)OC(C)(C)C)c1nnc(C)n1-2 [NCGC00250412-19],-163
8,CCc1cncnc1N1CCN(Cc2nc3ccc(C(F)(F)F)cc3[nH]2)CC1 + Cc1sc2c(c1C)C(c1ccc(Cl)cc1)=N[C@@H](CC(=O)OC(C)(C)C)c1nnc(C)n1-2 [NCGC00250412-19],36.6
9,O=C(O)C(=O)O.[NH-]C1CCCCC1[NH-].[Pt+2] (configuration not stated) + Cc1sc2c(c1C)C(c1ccc(Cl)cc1)=N[C@@H](CC(=O)OC(C)(C)C)c1nnc(C)n1-2 [NCGC00250412-19],-135
10,O=C(CCCN1CCN(c2ccc(F)cc2)CC1)NC1c2ccccc2CSc2ccccc21 (configuration not stated) + Cc1sc2c(c1C)C(c1ccc(Cl)cc1)=N[C@@H](CC(=O)OC(C)(C)C)c1nnc(C)n1-2 [NCGC00250412-19],-52.7
11,NCC(=O)Nc1ccc(-n2nc(C(F)(F)F)cc2-c2ccc3c(ccc4ccccc43)c2)cc1 + Cc1sc2c(c1C)C(c1ccc(Cl)cc1)=N[C@@H](CC(=O)OC(C)(C)C)c1nnc(C)n1-2 [NCGC00250412-19],13.2
12,COc1ccc(-c2nc3cc(C4=NNC(=O)CC4C)ccc3[nH]2)cc1 (configuration not stated) + Cc1sc2c(c1C)C(c1ccc(Cl)cc1)=N[C@@H](CC(=O)OC(C)(C)C)c1nnc(C)n1-2 [NCGC00250412-19],-77.7
13,COc1ccc(Cc2ccc(NC(N)=O)cc2)cc1-c1cccc(Cl)c1 + Cc1sc2c(c1C)C(c1ccc(Cl)cc1)=N[C@@H](CC(=O)OC(C)(C)C)c1nnc(C)n1-2 [NCGC00250412-19],-139
14,CN[C@H](CC(C)C)C(=O)N[C@H]1C(=O)N[C@@H](CC(N)=O)C(=O)N[C@H]2C(=O)N[C@H]3C(=O)N[C@H](C(=O)N[C@H](C(=O)O)c4cc(O)cc(O)c4-c4cc3ccc4O)[C@H](O)c3ccc(c(Cl)c3)Oc3cc2cc(c3O[C@@H]2O[C@H](CO)[C@@H](O)[C@H](O)[C@H]2O[C@H]2C[C@](C)(N)[C@H](O)[C@H](C)O2)Oc2ccc(cc2Cl)[C@H]1O + Cc1sc2c(c1C)C(c1ccc(Cl)cc1)=N[C@@H](CC(=O)OC(C)(C)C)c1nnc(C)n1-2 [NCGC00250412-19],-248
15,O=c1c(O)c(-c2ccc(O)c(O)c2)oc2cc(O)ccc12 + Cc1sc2c(c1C)C(c1ccc(Cl)cc1)=N[C@@H](CC(=O)OC(C)(C)C)c1nnc(C)n1-2 [NCGC00250412-19],-211
16,CNS(=O)(=O)Cc1ccc2[nH]cc(CCN(C)C)c2c1 + Cc1sc2c(c1C)C(c1ccc(Cl)cc1)=N[C@@H](CC(=O)OC(C)(C)C)c1nnc(C)n1-2 [NCGC00250412-19],-83.9
17,NS(=O)(=O)c1cc2c(cc1Cl)N=CNS2(=O)=O + Cc1sc2c(c1C)C(c1ccc(Cl)cc1)=N[C@@H](CC(=O)OC(C)(C)C)c1nnc(C)n1-2 [NCGC00250412-19],-55.8
18,CCOC(=O)[C@H](CCc1ccccc1)N[C@@H](C)C(=O)N1[C@H](C(=O)O)C[C@@H]2CCC[C@@H]21 + Cc1sc2c(c1C)C(c1ccc(Cl)cc1)=N[C@@H](CC(=O)OC(C)(C)C)c1nnc(C)n1-2 [NCGC00250412-19],-6.15
